In publication PMC4102794:
No constants are given. Whether binding was seen depends on the method and setting. Binding seen in cells or lysates may run through a third protein. A result given as binding can be weak or reduced; the word gives no strength.

Amino acid sequences for entries named in this document (tags omitted). A change or cut given only in a name is not applied to a line headed by its entry.
UniProt Q12834: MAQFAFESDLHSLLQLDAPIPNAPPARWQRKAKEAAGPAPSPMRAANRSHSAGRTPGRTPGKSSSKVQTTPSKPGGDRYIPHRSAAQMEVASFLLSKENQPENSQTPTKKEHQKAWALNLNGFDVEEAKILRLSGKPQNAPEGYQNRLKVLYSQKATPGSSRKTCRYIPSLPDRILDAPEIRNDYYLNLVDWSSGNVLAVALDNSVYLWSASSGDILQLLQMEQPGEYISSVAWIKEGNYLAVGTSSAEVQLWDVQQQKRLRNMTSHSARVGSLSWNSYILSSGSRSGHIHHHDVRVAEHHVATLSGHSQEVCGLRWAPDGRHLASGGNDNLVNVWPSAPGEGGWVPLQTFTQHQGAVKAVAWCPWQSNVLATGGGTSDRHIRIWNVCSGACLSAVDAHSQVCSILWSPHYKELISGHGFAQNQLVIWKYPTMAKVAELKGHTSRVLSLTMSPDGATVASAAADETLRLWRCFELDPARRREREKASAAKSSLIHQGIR
UniProt Q9UM11: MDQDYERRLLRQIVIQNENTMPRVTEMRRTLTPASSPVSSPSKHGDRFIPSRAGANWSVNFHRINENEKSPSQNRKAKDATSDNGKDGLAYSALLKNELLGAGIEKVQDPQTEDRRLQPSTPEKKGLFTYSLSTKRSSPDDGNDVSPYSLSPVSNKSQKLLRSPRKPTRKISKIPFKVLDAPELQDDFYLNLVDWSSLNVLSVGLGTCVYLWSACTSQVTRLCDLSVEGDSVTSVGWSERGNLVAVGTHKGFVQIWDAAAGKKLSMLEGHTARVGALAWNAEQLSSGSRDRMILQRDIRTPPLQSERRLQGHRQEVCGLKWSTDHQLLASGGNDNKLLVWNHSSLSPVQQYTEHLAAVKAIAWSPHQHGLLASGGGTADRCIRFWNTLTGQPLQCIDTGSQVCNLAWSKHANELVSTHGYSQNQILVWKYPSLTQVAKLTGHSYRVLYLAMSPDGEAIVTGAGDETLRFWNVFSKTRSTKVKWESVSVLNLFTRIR
UniProt Q9NPI1: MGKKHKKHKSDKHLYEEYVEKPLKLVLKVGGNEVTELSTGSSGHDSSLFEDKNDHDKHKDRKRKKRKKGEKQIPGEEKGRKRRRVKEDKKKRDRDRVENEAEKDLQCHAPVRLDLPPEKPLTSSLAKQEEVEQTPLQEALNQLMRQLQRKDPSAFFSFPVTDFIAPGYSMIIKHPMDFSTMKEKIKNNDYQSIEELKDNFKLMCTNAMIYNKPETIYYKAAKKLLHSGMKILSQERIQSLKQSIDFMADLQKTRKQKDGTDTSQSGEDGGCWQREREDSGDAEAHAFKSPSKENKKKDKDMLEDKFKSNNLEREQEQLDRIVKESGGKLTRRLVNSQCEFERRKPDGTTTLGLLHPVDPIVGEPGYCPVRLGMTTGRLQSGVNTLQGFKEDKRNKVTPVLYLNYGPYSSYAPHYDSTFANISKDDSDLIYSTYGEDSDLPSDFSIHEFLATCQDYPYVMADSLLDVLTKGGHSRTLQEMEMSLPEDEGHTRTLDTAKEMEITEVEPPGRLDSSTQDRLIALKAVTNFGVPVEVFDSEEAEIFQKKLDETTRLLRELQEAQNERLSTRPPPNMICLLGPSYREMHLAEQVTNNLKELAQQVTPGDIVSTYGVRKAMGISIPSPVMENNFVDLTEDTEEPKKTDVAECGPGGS

Columns and labels:
HA-tagged Cdc20 (human) = HA-tagged Cdc20 (human) (UniProt Q12834); assay: co-IP; deletion constructs of BRD7, Cdh1 or Cdc20 to map the binding domains; tags and cells not given
HA-tagged Cdh1 (human) = HA-tagged Cdh1 (human) (UniProt Q9UM11); assay: as above

BRD7 mutant lacking the bromodomain (from UniProt Q9NPI1)
binding (HA-tagged Cdc20 (human)): binds | binding (HA-tagged Cdh1 (human)): binds
